Structures can show the parent of a compound that is named as a salt. This is one part of the list. Part of the spread comes from offsets between plates or batches.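 The clonal Drosophila S2 line carries Smoothened with a circularly permuted GFP inserted in its cytoplasmic tail, which fluoresces once Hh-driven phosphorylation opens an inhibitory loop. Per-cell fluorescence was read by flow cytometry, scaled to Hh-stimulated untreated cells. Hits were groups of inhibitors sharing pathway targets that shifted fluorescence consistently, not single compounds.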
Tested on: Drosophila S2 cl14 SmoIP sensor cells
Test: normalized SmoIP GFP fluorescence (untreated unstimulated = 0%, untreated Hh-stimulated = 100%); higher = more Smo activation sensor fluorescence
Details: compound concentration: 15 uM, 24 h
[1] = stimulation: Hh conditioned medium (+Hh)
[2] = stimulation: mock conditioned medium (-Hh)

| SMILES | normalized SmoIP GFP fluorescence [1] [%] | normalized SmoIP GFP fluorescence [2] [%] |
| --- | --- | --- |
| COc1cc(NC(=O)c2ccc(-c3ccc(Cl)cc3)o2)cc(OC)c1 | 141 | 33.9 |
| OC[C@H]1O[C@@H](c2ccc(Cl)c(Cc3ccc(O[C@H]4CCOC4)cc3)c2)[C@H](O)[C@@H](O)[C@@H]1O | 140 | -11.4 |
| Nc1cc(F)ccc1NC(=O)/C=C/c1cnn(C/C=C/c2ccccc2)c1 [rgfp966] | 183 | 48.6 |
| CN1CCN2c3ccccc3Cc3ccccc3C2C1 (stereo not drawn) [Mianserin-hydrochloride] | 154 | 49.2 |
| CN(C)C1CCN(C(=O)c2ccc(NC(=O)Nc3ccc(-c4nc(N5CCOCC5)nc(N5CCOCC5)n4)cc3)cc2)CC1 | 62.6 | -4.35 |
| O=C(O)C(O)Cc1ccc(O)c(O)c1 (stereo not drawn) [Sodium-Danshensu] | 101 | -7.65 |
| CCNC(=O)c1[nH]nc(-c2cc(Cl)c(O)cc2O)c1-c1ccc(OC)cc1 | 252 | 69.4 |
| COc1cccc(-c2cc(=O)c3ccccc3o2)c1N | 177 | 18.3 |
| COc1ccc(-n2nc(C(N)=O)c3c2C(=O)N(c2ccc(N4CCCCC4=O)cc2)CC3)cc1 | 138 | -2.42 |
| CCCc1nn(C)c2c(=O)[nH]c(-c3cc(S(=O)(=O)N4CCN(C)CC4)ccc3OCC)nc12 [Sildenafil-citrate] | 135 | 13.8 |
| O=C(O)c1cccc(-c2noc(-c3ccccc3F)n2)c1 | 124 | -0.264 |
| CN1CCN(c2cccc(Nc3nc4c(-c5ccc(S(C)(=O)=O)cc5)cccn4n3)c2)CC1 | 71.3 | 14.4 |
| Cc1cc(OCCCS(C)(=O)=O)cc(C)c1-c1cccc(COc2ccc3c(c2)OC[C@H]3CC(=O)O)c1 | 157 | 2.05 |
| COC(=O)N[C@H](C(=O)N1CCC[C@H]1c1ncc(-c2ccc(-c3ccc(-c4cnc([C@@H]5CCCN5C(=O)[C@@H](NC(=O)OC)C(C)C)[nH]4)cc3)cc2)[nH]1)C(C)C | 96.5 | 32.9 |
| CCN(c1cc(-c2ccc(CN3CCOCC3)cc2)cc(C(=O)NCc2c(C)cc(C)[nH]c2=O)c1C)C1CCOCC1 | 137 | 12.7 |
| Cn1cc(-c2ccc3ncc(Cc4ccc5ncccc5c4)n3n2)cn1 | 130 | -12.7 |
| Cc1cc(C)nc(NS(=O)(=O)c2ccc(NC(=S)NC(=O)COc3ccc(Br)cc3Cl)cc2)n1 | 131 | -0.378 |
| Oc1cc(O)cc(/C=C/c2ccc(O)c(O)c2)c1 [piceatannol] | 153 | 14.4 |
| N#Cc1ccc(C(c2ccc(C#N)cc2)n2cncn2)cc1 [Letrozole] | 131 | 1.35 |
| Cc1nnc(C(=O)NC(C)(C)c2nc(C(=O)NCc3ccc(F)cc3)c(O)c(=O)n2C)o1 [Raltegravir-(MK-0518)] | 121 | 2.77 |
| CCN(CC)CC#CCOC(=O)C(O)(c1ccccc1)C1CCCCC1 (stereo not drawn) [oxybutynin-chloride] | 142 | 18.6 |
| c1cnc2cc3c(cc2n1)[C@@H]1CNC[C@H]3C1 [Varenicline-tartrate] | 132 | 0.274 |
| CC(C)OC(=O)OCOP(=O)(CO[C@H](C)Cn1cnc2c(N)ncnc21)OCOC(=O)OC(C)C [Tenofovir-Disoproxil-Fumarate] | 140 | 1.89 |
| Cc1cccc(-c2[nH]ncc2-c2ccc3ncccc3n2)n1 [repsox] | 175 | 30.3 |
| c1ccc2c(c1)CCCC2C1=NCCN1 (stereo not drawn) [tetrahydrozoline-hcl] | 113 | -0.775 |

| SMILES | normalized SmoIP GFP fluorescence [1] [%] | normalized SmoIP GFP fluorescence [2] [%] |
| --- | --- | --- |
| Oc1cccc(-c2nc(N3CCOCC3)c3oc4ncccc4c3n2)c1 | 121 | 7.92 |
| COc1cc2ncnc(Nc3cccc(Cl)c3)c2cc1OC [ag-1478-tyrphostin-ag-1478] | 169 | 48.1 |
| CCOC(=O)[C@H](CCc1ccccc1)N[C@@H](C)C(=O)N1Cc2ccccc2C[C@H]1C(=O)O [quinapril-hydrochloride-accupril] | 125 | -11.6 |
| NC(=O)c1ccc(-c2nc(-c3ccccn3)c(-c3ccc4c(c3)OCO4)[nH]2)cc1 | 201 | 23.8 |
| CCc1cc2c(cc1CC)CC(NC[C@H](O)c1ccc(O)c3[nH]c(=O)ccc13)C2 [indacaterol-maleate] | 130 | 15 |
| COc1ccccc1N1CCN(CCN2C(=O)CC3(CCCC3)CC2=O)CC1 | 130 | -14.5 |
| COc1ccc(-c2nc(N3CCOCC3)c3sc(CN(C)c4ncc(C(=O)NO)cn4)cc3n2)cn1 [cudc-907] | 230 | 52.7 |
| CCCCNC(=O)NS(=O)(=O)c1ccc(C)cc1 [tolbutamide] | 123 | -19 |
| O=C(NCCN1CCOCC1)c1ccc(Cl)cc1 [moclobemide] | 114 | -3.79 |
| COC(=O)Nc1ccc(-c2nc(N3CCOCC3)c3cnn(C4CCN(C(=O)OC)CC4)c3n2)cc1 | 75.9 | 4.04 |
| CN(C)CCC=C1c2ccccc2CCc2ccccc21 [amitriptyline-hydrochloride] | 142 | 18.3 |
| Cn1cc(CNCC2CCN(c3ncc(C(=O)NO)cn3)CC2)c2ccccc21 | 277 | 75.9 |
| CCOc1cc(N)c(Cl)cc1C(=O)NCC1CN(Cc2ccc(F)cc2)CCO1 (stereo not drawn) [Mosapride-citrate] | 166 | 12.1 |
| Nc1nc(N)c2nc(-c3ccccc3)c(N)nc2n1 [triamterene] | 138 | 2.12 |
| CN1C2CCCC1CC(NC(=O)c1nn(C)c3ccccc13)C2 (stereo not drawn) [Granisetron-Hydrochloride] | 135 | 2.64 |
| CNCCC(Oc1ccc(C(F)(F)F)cc1)c1ccccc1 (stereo not drawn) [Fluoxetine-hydrochloride] | 148 | 35.5 |
| O=C(c1ccc(F)cc1)N1CCC[C@H](c2nc(-c3ccc(F)cc3)no2)C1 | 148 | 19.1 |
| C=CC(=O)Nc1cccc(Oc2nc(Nc3ccc(N4CCN(C)CC4)cc3OC)ncc2Cl)c1 | 147 | 40.9 |
| C/C(=C\C(=O)Nc1ccccc1C(=O)O)c1ccc2ccccc2c1 | 130 | 5.98 |
| Cc1ccc(-c2c(-c3nn(C)c4ncnc(N5CC[C@H](N6CCCCC6)C5)c34)cnn2C)cc1 | 125 | 3.88 |
| COc1ccccc1N1CCN(CC(O)COc2cccc3ccccc23)CC1 (stereo not drawn) [Naftopidil-Dihydrochloride] | 171 | 41.9 |
| CN(C)CC(=O)Nc1ccc2[nH]c(=O)c3ccccc3c2c1 | 137 | 6.67 |
| CCC(CC)CC1(C(=O)Nc2ccccc2SC(=O)C(C)C)CCCCC1 [dalcetrapib-jtt-705] | 130 | -0.297 |
| O=C(NS(=O)(=O)c1ccc(Br)s1)c1ccc(Cl)cc1Cl [tasisulam] | 123 | 3.88 |
| C/C=C1\[C@H]2C=C(C)C[C@]1(N)c1ccc(=O)[nH]c1C2 [(-)-Huperzine-A] | 124 | -17.2 |

Arranged by length of the SMILES (ascending): 3 of the compounds above

| SMILES | normalized SmoIP GFP fluorescence [1] [%] | normalized SmoIP GFP fluorescence [2] [%] |
| --- | --- | --- |
| CCCCNC(=O)NS(=O)(=O)c1ccc(C)cc1 [tolbutamide] | 123 | -19 |
| COc1ccccc1N1CCN(CC(O)COc2cccc3ccccc23)CC1 (stereo not drawn) [Naftopidil-Dihydrochloride] | 171 | 41.9 |
| COC(=O)Nc1ccc(-c2nc(N3CCOCC3)c3cnn(C4CCN(C(=O)OC)CC4)c3n2)cc1 | 75.9 | 4.04 |

The list goes on.

| SMILES | normalized SmoIP GFP fluorescence [1] [%] | normalized SmoIP GFP fluorescence [2] [%] |
| --- | --- | --- |
| CCCCOc1cc(C(=O)NCCN(CC)CC)c2ccccc2n1 [dibucaine-cinchocaine-hcl] | 137 | 15.4 |
| C[C@@H](N)[C@H]1CC[C@H](C(=O)Nc2ccncc2)CC1 | 116 | -8.56 |
| CC(C)(C)c1cc(NC(=O)Nc2ccc(-c3cn4c(n3)sc3cc(OCCN5CCOCC5)ccc34)cc2)no1 | 182 | 87.7 |
| CS(=O)(=O)Nc1ccc([N+](=O)[O-])cc1Oc1ccccc1 [nimesulide] | 137 | -9.4 |
| CNCCCC12CCC(c3ccccc31)c1ccccc12 [Maprotiline-hydrochloride] | 178 | 17.8 |
| CC(=O)O/N=C1\C(=O)N(Cc2cc(Cl)ccc2Cl)c2ccc(Cl)cc21 | 116 | 7.75 |
| CO[C@@H](C(=O)N1Cc2[nH]nc(NC(=O)c3ccc(N4CCN(C)CC4)cc3)c2C1)c1ccccc1 | 265 | 35.2 |
| Cc1ccc(C(=O)Nc2cccc(C(F)(F)F)c2)cc1Nc1nc(-c2cccnc2)nc2c1cnn2C | 105 | 31 |
| COc1c(C)c(C(=O)c2ccc(N)c(C(=O)O)c2)n2ccccc12 | 109 | 4 |
| C[C@]12CCC(=O)C=C1[C@@H]1C[C@@H]1[C@H]1[C@@H]3[C@@H]4C[C@@H]4[C@@]4(CCC(=O)O4)[C@@]3(C)CC[C@@H]12 [Drospirenone] | 192 | 48.9 |
| O=C(O)CCCc1ccccc1 [sodium-phenylbutyrate] | 119 | 0.361 |
| CCCCCCCCCCCC1=C(O)C(=O)C=C(O)C1=O [embelin] | 154 | 13.5 |
| CC(C)c1cc(C(C)C)c(CC(=O)NS(=O)(=O)Oc2c(C(C)C)cccc2C(C)C)c(C(C)C)c1 [Avasimibe(CI-1011)] | 105 | 47.2 |
| O=C(c1ccc(OCCN2CCCCC2)cc1)c1c(-c2ccc(O)cc2)sc2cc(O)ccc12 [Evista] | 156 | 60.6 |
| COc1ccc([C@H]2CNC(=O)C2)cc1OC1CCCC1 [sRolipram] | 128 | -5.8 |
| NC12CC3CC(CC(C3)C1)C2 [Amantadine-hydrochloride(Symmetrel)] | 154 | -14.3 |
| C[C@H](Cc1cc2c(c(C(N)=O)c1)N(CCCO)CC2)NCCOc1ccccc1OCC(F)(F)F [Silodosin(Rapaflo)] | 135 | 15.9 |
| C[C@H](Nc1ncnc2nc[nH]c12)c1cc2cccc(Cl)c2c(=O)n1-c1ccccc1 | 113 | 35.5 |
| Cc1ccccc1C(=O)Nc1ccc(C(=O)N2CCCC(N(C)C)c3ccccc32)cc1 (stereo not drawn) [mozavaptan] | 118 | 7.06 |
| CCCCCCCCCCCCc1ccc(S(=O)(=O)Nc2nncs2)cc1 | 120 | -0.0496 |
| NC(=O)c1ccc(I)c([N+](=O)[O-])c1 | 150 | 35.5 |
| CN1CCc2nc(C(=O)N[C@@H]3C[C@@H](C(=O)N(C)C)CC[C@@H]3NC(=O)C(=O)Nc3ccc(Cl)cn3)sc2C1 [edoxaban] | 162 | 31.7 |
| Oc1ccc([C@H]2COc3cc(O)ccc3C2)cc1 [equol] | 125 | -11.7 |
| N#Cc1ccc2[nH]c(O)c(-c3ccc(CN4CCOCC4)cn3)c2c1 | 208 | 60.5 |

— the supplement of paper PMC5662767
